# The supplement of paper PMC5949888
# Most values lie at the floor of the assay. Slopes are relative: functional sequences can read slightly below zero.
# System: Saccharomyces cerevisiae PS128 hsf1 delta, HSF1(1-493) fusion
# Experiment: growth estimate (transactivation domain function in HSF1 fusion, heat-shock survival) (a.u. (slope of normalised read count over time)); higher = stronger growth at 37°C, i.e. more transactivation activity
# Conditions: library: random library
row,Substance,growth estimate
1,ALANQLLH,< -0.25
2,TGNVEKSGVCRGSKGQTGST,< -0.25
3,SSTWAPLSSALLTENLPGGF,< -0.25
4,GTAG,< -0.25
5,IETSVNTIRPD,< -0.25
6,RCRAKDCTLSRHDAARMLKR,< -0.25
7,NSLAAG,< -0.25
8,RYYPWV,< -0.25
9,RNSMGGSLGMSGTAIVESIK,< -0.25
10,PDDSGWGRKDR,< -0.25
11,GLPGLLRAR,< -0.25
12,YNPR,< -0.25
13,SGGWRAVTYISDQLHVDRLS,< -0.25
14,LWNFIGLHHG,< -0.25
15,PEALTGSESWV,-0.246
16,VPSVCQASLLI,< -0.25
17,VVRDY,< -0.25
18,RGVVHKVSV,< -0.25
19,GYGRLRLF,< -0.25
20,CGCVCTRDELVIH,< -0.25
21,PPKVISVGSRNGWANLTISL,< -0.25
22,GSLGTHGLPELCHSLLVPGD,< -0.25
23,GLALPQGCSVCFNAAGRRV,< -0.25

# Another view of part of the listing above.
row	Substance	growth estimate
12	YNPR	< -0.25
13	SGGWRAVTYISDQLHVDRLS	< -0.25
14	LWNFIGLHHG	< -0.25
15	PEALTGSESWV	-0.246
16	VPSVCQASLLI	< -0.25
17	VVRDY	< -0.25

# Carrying on.

row,Substance,growth estimate
1,IPGGMGSRRKTVGWGLQLLQ,< -0.25
2,MTRLESIIVHHVI,< -0.25
3,LEFTLEGI,-0.246
4,RVGSSKATEASRNGTSC,< -0.25
5,LRLP,< -0.25
6,RWLGLCSEFYRPPNSIDGRP,< -0.25
7,GTWPPGADVARAASIYSVAH,< -0.25
8,YVRLEQMPEQLRSH,< -0.25
9,PNRDCWR,-0.25
10,PNRSSVPSGTRVH,< -0.25
11,TAQRRETLLDYQVGN,< -0.25
12,GTSDAINMIYSIIHDRRVTM,-0.243
13,FGHDQY,< -0.25
14,SVGLPYERAS,< -0.25
15,LHSTKLAG,< -0.25
16,RDIP,< -0.25
17,GEVEFLVKQGDLPSLASRKV,< -0.25
18,LFYP,< -0.25
19,PFRG,< -0.25
20,SSCRNICAGRDGGGQEPPSD,< -0.25
21,VWVPSEALLQLYMAGVRLLA,-0.243
22,VTTAEAACNE,< -0.25
23,TWQKGVNSTSIAAAGFGKAD,< -0.25

row,Substance,growth estimate
1,LSAVARSNWTQTCITG,< -0.25
2,ILLLTGRGVR,< -0.25
3,SNCVRVIIFVTRTGSTKPRR,< -0.25
4,VAGSIQVLAT,< -0.25
5,YFSRP,< -0.25
6,WITVDARRRSLTV,< -0.25
7,RDNRTLDLIYILPLSPVSCL,< -0.25
8,RRMFASVLHPASEAEISVCR,< -0.25
9,LTSFACLGQKSKSNRRTKHA,< -0.25
10,SYLRRALTDRCCAQ,< -0.25
11,VSIR,< -0.25
12,LIAREPTRILRPTASFSSHS,< -0.25
13,PPLRLCRN,< -0.25
14,RRIHHSQPRRVCSAISIQCR,< -0.25
15,NQGRARMVMSARYLHGSPRP,< -0.25
16,RPSSERISRREHKGHGGKRP,< -0.25
17,GRLIINGHRAHRTLWERPPR,< -0.25
18,SVVHTVFTSGQVSCRWRPCG,< -0.25
19,VPVLETSYGHIIRFA,< -0.25
20,LIVEVWGGHEPIRMRPALQL,< -0.25
21,WSTCCRCPHRGGGHAE,< -0.25
22,SPLQTSCTITYRRRR,< -0.25
23,EDYYVRI,< -0.25

row,Substance,growth estimate
1,LQAPSSAIGNSA,< -0.25
2,PDGYYPLSI,< -0.25
3,FTEVHLILRYYFPPVLGNRS,< -0.25
4,LVIVQYYLPGFVSS,< -0.25
5,GIWPEYSTLVETA,< -0.25
6,GSNLQSGGLEVVTLRSEVRH,< -0.25
7,PAFLSLLNLQHENTK,< -0.25
8,SKRFALVNSQSDVIL,< -0.25
9,FPVPRLGIPHYQIG,< -0.25
10,RGDHCLFHGYEASAVSPSSS,< -0.25
11,KHLHDHFRCSTWSLYQRSAI,< -0.25
12,AITRLPTASSGL,< -0.25
13,SSRSHALRESQN,< -0.25
14,GCGNGR,< -0.25
15,GYST,< -0.25
16,SGTAGRTQFNKLGELRPHRR,< -0.25
17,KDSIWGRRSYD,< -0.25
18,HRPRGGRGRG,< -0.25
19,SGVAGLHKQLP,< -0.25
20,RSRRGNPFTNIR,< -0.25
21,SSAGSGMRDFLKSLYGNRAL,-0.241
22,LGLGCKHNVAIRWSHGLAST,< -0.25
23,PAIGAVAQVV,< -0.25

row,Substance,growth estimate
1,HVARPTPTAGSVCWFG,< -0.25
2,PRRGAPVEIPWPVR,< -0.25
3,IHRVRRQMRSPDIIG,< -0.25
4,DTLTIRGPCFRETTQNT,< -0.25
5,SCRVSTHPLHGSLYIGGTVH,< -0.25
6,YAMYGY,< -0.25
7,GWSVLMD,< -0.25
8,QMV,-0.25
9,LPRAGTALGRHWPSTITNGA,< -0.25
10,TVFGGGPRQYQCVTGIPTTR,< -0.25
11,RAGAAIYLRVALERVHHWWT,-0.246
12,LLGHQTNKGF,< -0.25
13,TVGSLVQAKSGVGIRIALHS,< -0.25
14,YKRGPLETALVFYV,< -0.25
15,YAIGEGANRGHNSMGP,< -0.25
16,VREVSPTHIDGE,< -0.25
17,CEPQVGGCQVVGPLL,< -0.25
18,PVTQWITTQADECLLARPLW,< -0.25
19,FCVFEGR,< -0.25
20,PTVSTGV,< -0.25
21,ISSFQTTDRHDQGSVGI,< -0.25
22,IGLLLRKH,< -0.25
23,YGQGIRKSCGAFNKGRG,< -0.25

row,Substance,growth estimate
1,ASES,< -0.25
2,GDGKD,< -0.25
3,TIYL,< -0.25
4,LYLCSNLSPSGVALKMNIQR,-0.229
5,SCNIRVERRCYGEWQSEICL,< -0.25
6,DYCVASALRGGKRGGQISVL,< -0.25
7,EDHPLLSIRMGVVIPLSSNR,< -0.25
8,KATQ,< -0.25
9,IALTGRSQYNAW,< -0.25
10,SVGGVRKTANKSALNRTLTR,< -0.25
11,LVKQAVDRVIMPVLVFAYGD,< -0.25
12,SRGCTVHGMFYGVHIWPALA,< -0.25
13,VGRGAISEGRCTGVIRAPMA,< -0.25
14,LNISYLMTWMRFGSTS,< -0.25
15,RWGCFC,< -0.25
16,STI,< -0.25
17,WRFYQRVRIILQAG,< -0.25
18,TRRPSRPSSISMIVPGLVSF,< -0.25
19,ITSDLSGSYGDKLIA,-0.201
20,NSCASENVDAGYAGQTAAAR,< -0.25
21,RARMVGLRRYK,< -0.25
22,WTPILFFPRLRLVRVAKQHS,< -0.25
23,GCVRASVQKFGTAKDRATVG,< -0.25

row,Substance,growth estimate
1,HNELYAWSGIAWN,< -0.25
2,VKRAKTDPNAGPP,< -0.25
3,SESDDQVGKYGSEVWLGYAT,-0.229
4,SLVGLTGC,< -0.25
5,VHG,< -0.25
6,QVQEHMLANESTRGSVESAG,< -0.25
7,QLLGRFTGAKDVRD,< -0.25
8,RGYDVTVGACQRDSRRDYRA,< -0.25
9,PLVPG,< -0.25
10,VGHPTNYG,< -0.25
11,ELLYRESDGDYKGG,< -0.25
12,TLDVGGSSLNGGFTYIKQRD,< -0.25
13,VDVGLLVGGAG,< -0.25
14,RAAHTLPLTEAALEAPSQVT,< -0.25
15,VVGTLAPGFVTPSHRAC,< -0.25
16,SIHHTKYITALIARALR,< -0.25
17,DLSKPEKSS,< -0.25
18,ELKPPLLGGTRPRCYHKLGL,-0.246
19,RVLFREYPRVNACYPFT,< -0.25
20,WPNPIVGISPAEKRKRLVVG,< -0.25
21,PGKRVLMDRCVLPRAFKGWQ,< -0.25
22,CYRTVGFTRAMHTHQWQGRL,< -0.25

# Looked up one by one from above:
row,Substance,growth estimate
14,RAAHTLPLTEAALEAPSQVT,< -0.25
7,QLLGRFTGAKDVRD,< -0.25
3,SESDDQVGKYGSEVWLGYAT,-0.229
1,HNELYAWSGIAWN,< -0.25
16,SIHHTKYITALIARALR,< -0.25
19,RVLFREYPRVNACYPFT,< -0.25
